Earlier results as cited in patent US20230210890A1, “COMPOSITIONS AND METHODS OF TREATING COVID-19 WITH HEPARIN OR OTHER NEGATIVELY CHARGED MOLECULES” (Siemens Healthcare Diagnostics Inc., priority 2020, published 2023).
For at least one compound, name, drawing or mass did not settle the structure.

Test system: hospitalized patients with Covid-19
Details: WHO Solidarity Trial; cited from earlier work

CCC(CC)COC(=O)[C@H](C)N[P@](=O)(OC[C@H]1O[C@@](C#N)(c2ccc3c(N)ncnn23)[C@H](O)[C@@H]1O)Oc1ccccc1 [remdesivir]
effect on hospitalized patients with Covid-19: little or no effect
